Measured values from patent US10150984B2, “Tyrosine kinase biosensors and methods of use” (Purdue Research Foundation, priority 2012, dated 2018).
Where two headings read alike, the source gives them in different places.

Experiment: Tb3+ binding affinity and stoichiometry by sensitized luminescence
[1] = unphosphorylated vs phosphorylated form

In the case of DEEDYEEPDEP [SAStide], the “fold weaker Tb3+ binding than the phosphorylated peptide” value is reported as 5 fold.
In the case of “GGDNEGDVYDFVEDGGKbiotin (GGDNEGDVYDFVEDGGKGG; C-terminal lysine biotin; MUTAGEN (17)..(17) Biotinylated Lysine) [SFAStideB, Src family artificial substrate peptide B]”, the “fold weaker Tb3+ binding than the phosphorylated peptide” value [1] is reported as 1.4 fold.
In the case of GGEEDEDIYEELDEPGGKbiotinGG [SFAStide-A], the “fold weaker Tb3+ binding than the phosphorylated peptide” value [1] is reported as 5 fold.
